Over roughly 2,300 compounds, “plate-normalized OD600 growth (mean of duplicates)” has its median near 0.29; the lowest 2% begin near 0.22. Some of the results follow.
Tested on: Escherichia coli BW25113
Experiment: plate-normalized OD600 growth (mean of duplicates) (OD600 (normalized)); higher = more growth (less inhibition)
Settings: 10 µM
Protocol: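 E. coli BW25113 in LB (100 µl, 96-well, no shaking) was exposed to 10 µM of each compound from a ~30,000-member library and grown at 37°C for 24 h or 15°C for 48 h, in duplicate. Growth was read as OD600 and the duplicate ODs were normalized across screening plates to correct plate-to-plate variation. Hits were >3σ below the mean OD600 at 15°C and <2σ below the mean at 37°C.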

Row | Compound | plate-normalized OD600 growth (temperature: 15°C, 48 h) | plate-normalized OD600 growth (temperature: 37°C, 24 h)
1 | COc1ccc(NC(=O)C(=O)NCCN2CCN(C(=O)c3cccc(F)c3)CC2)cc1 | 0.259 | 0.619
2 | CCOC(=O)C(=NC)C1=NC(C)(C)Cc2ccccc21 | 0.232 | 0.57
3 | Cc1onc2c(=O)n(-c3ccccc3)nc(-c3ccccc3)c12 | 0.248 | 0.605
4 | C/C(=N/O)c1sc2nc(C(F)(F)F)nn2c1C | 0.231 | 0.608
5 | CC(NC(=O)C1C(=O)NC2(C)CC1c1ccccc1O2)c1ccccc1 (stereo unspecified) | 0.258 | 0.659
6 | CC(=O)c1ccc(NC(=S)NC(=O)c2cccnc2)cc1 | 0.248 | 0.608
7 | Clc1cccc(CN2CCN(Cc3ccco3)CC2)c1 | 0.237 | 0.636
8 | COc1ccc2nc(NC(=O)CSc3nnc4n(N)cnn34)sc2c1 | 0.245 | 0.612
9 | Cc1cc(C)n(-c2nc3ccccc3s2)n1 | 0.241 | 0.622
10 | CC(=O)N1c2ccccc2C2=NNC(=S)NC21O (stereo unspecified) | 0.252 | 0.642
11 | CC(C)(C)c1cc(CS)cc(C(C)(C)C)c1O | 0.243 | 0.625
12 | Cc1cc(N2CCCC2)ccc1/C=N/n1cnnc1 | 0.259 | 0.687
13 | N#CC1=C(O)OC2(C(=O)Nc3ccccc32)C2=C1CCC2 (stereo unspecified) | 0.249 | 0.614
14 | CC(C)(C)c1ccc(-c2nnnn2-c2ccccc2)cc1 | 0.225 | 0.638
15 | O=C(CNC(=O)C(c1ccccc1)c1ccccc1)N/N=C/c1cccc(OC(=O)c2ccccc2Br)c1 | 0.258 | 0.641
16 | CCc1c2c(nn1-c1cc(Cl)ccc1OC)CC(c1ccccc1)CC2=O (stereo unspecified) | 0.25 | 0.63
17 | N=c1sccn1CC(O)c1ccccc1 (stereo unspecified) | 0.236 | 0.625
18 | CSC(=NCc1cccnc1)NC#N | 0.259 | 0.629
19 | N#Cc1c(N)sc2c1CCCCC2 | 0.245 | 0.634
20 | CCOc1ccc(CC(=Nc2ccccc2O)C2=C(O)CC(C)(C)CC2=O)cc1OCC | 0.262 | 0.631
21 | Cc1ccc(NC(=O)C2C3C=CCCCCC32)cc1 (stereo unspecified) | 0.248 | 0.617
22 | Oc1ccc(C2=CSC3=NCCN23)cc1O | 0.246 | 0.608
23 | Cc1cc(=O)oc2n[nH]c(-c3ccccc3)c12 | 0.258 | 0.64
24 | O=[N+]([O-])c1ccc(OCCCOc2ccc([N+](=O)[O-])cc2)cc1 | 0.238 | 0.596
25 | CC1(C)C2CCC1(C)C(N/C(=C(/C(Cl)=C(Cl)Cl)[N+](=O)[O-])n1nnc3ccccc31)C2 (stereo unspecified) | 0.253 | 0.629

Row | Compound | plate-normalized OD600 growth (temperature: 15°C, 48 h) | plate-normalized OD600 growth (temperature: 37°C, 24 h)
26 | COc1cccc(NC(=O)CCCc2ccccc2)c1 | 0.249 | 0.634
27 | O=C(O)c1sc2nc(-c3ccccc3)cc(-c3ccccc3)c2c1-n1cccc1 | 0.268 | 0.628
28 | CC(C(=O)O)C(=O)c1cc(Cl)c(Cl)cc1Cl (stereo unspecified) | 0.215 | 0.63
29 | ON=C(c1cccs1)c1cccs1 | 0.229 | 0.591
30 | Cc1ccc(-n2nc3c([n+]2[O-])CCc2nonc2-3)cc1 | 0.243 | 0.608
31 | O=C(Nc1ccccc1)C(O)C(O)C(=O)Nc1ccccc1 (stereo unspecified) | 0.239 | 0.609
32 | OC1(c2ccc(F)cc2)Cc2ccccc2C2=NCCN21 (stereo unspecified) | 0.251 | 0.589
33 | Nc1nnc(CCCCCc2nnc(N)s2)s1 | 0.248 | 0.621
34 | OC1CCN(C(=S)Nc2ccccc2)CC1 | 0.246 | 0.61
35 | O=C(Cc1c[nH]c2ccccc12)OCC(=O)c1ccc(F)cc1 | 0.257 | 0.613
36 | O=C1CC(c2ccco2)c2ccc3ccccc3c2N1 (stereo unspecified) | 0.241 | 0.623
37 | CC1(C)OC(=O)N(CCCCCCN2C(=O)OC(C)(C)C2(C)O)C1(C)O (stereo unspecified) | 0.197 | 0.652
38 | COc1cc(/C=C2\NC(=O)NC2=O)ccc1O | 0.247 | 0.622
39 | CCC(Sc1nc2ccccc2s1)C(=O)Nc1nnc(C)s1 (stereo unspecified) | 0.255 | 0.658
40 | COC(=O)c1cccc([N+](=O)[O-])c1-c1c(C(=O)OC)cccc1[N+](=O)[O-] | 0.236 | 0.619
41 | CCCCC#Cc1ccc(C(=O)NNC(=O)Nc2cc(Cl)cc(Cl)c2)o1 | 0.256 | 0.61
42 | Cc1ccc(NC(=O)CCN2CCN(c3ccccc3)CC2)cc1 | 0.26 | 0.612
43 | C/C(CC(=O)Nc1ccc(Nc2ccccc2)cc1)=N\NC(=O)Cc1ccccc1 | 0.242 | 0.651
44 | N#CC(C(=O)c1ccc(Cl)cc1Cl)c1nc2ccccc2[nH]1 (stereo unspecified) | 0.246 | 0.601
45 | Cc1cc(Cl)nc(NC(=O)NS(=O)(=O)c2ccccc2NC(=O)C(F)(F)F)n1 | 0.233 | 0.611
46 | COc1ccc2[nH]c(C)c(CCNS(=O)(=O)c3cc(Cl)ccc3Cl)c2c1 | 0.249 | 0.606
47 | Cc1nn2c(c1-c1ccccc1)NC(=O)CC2=O | 0.256 | 0.643
48 | N#Cc1cc(I)c(C#N)c(I)c1 | 0.198 | 0.616
49 | CCOC(=O)C1C(c2ccccc2)C(C(=O)OCC)C1c1ccccc1 (stereo unspecified) | 0.256 | 0.62
50 | CCc1ccccc1NC(=O)CSc1nc2c(c(=O)n(C)c(=O)n2C)n1C | 0.248 | 0.609

Some of the entries above in another layout.
Row,Compound,"plate-normalized OD600 growth (temperature: 15°C, 48 h)","plate-normalized OD600 growth (temperature: 37°C, 24 h)"
38,COc1cc(/C=C2\NC(=O)NC2=O)ccc1O,0.247,0.622
40,COC(=O)c1cccc([N+](=O)[O-])c1-c1c(C(=O)OC)cccc1[N+](=O)[O-],0.236,0.619
42,Cc1ccc(NC(=O)CCN2CCN(c3ccccc3)CC2)cc1,0.26,0.612
43,C/C(CC(=O)Nc1ccc(Nc2ccccc2)cc1)=N\NC(=O)Cc1ccccc1,0.242,0.651
50,CCc1ccccc1NC(=O)CSc1nc2c(c(=O)n(C)c(=O)n2C)n1C,0.248,0.609

(list continues)

Row | Compound | plate-normalized OD600 growth (temperature: 15°C, 48 h) | plate-normalized OD600 growth (temperature: 37°C, 24 h)
51 | O=C(O)CC(CC(=O)O)c1ccc(C(F)(F)F)cc1 | 0.246 | 0.599
52 | Cc1[nH]c2ccc(Cl)cc2c(=O)c1CN1CCC(C)CC1 | 0.239 | 0.59
53 | Cc1cc(=O)n2c(-c3ccc(Cl)cc3)csc2n1 | 0.239 | 0.607
54 | Cc1ccc(S(=O)(=O)Nc2ccc(C)c(Cl)c2)cc1 | 0.235 | 0.626
55 | c1ccc2c(c1)OCCCOc1ccccc1OCCCO2 | 0.251 | 0.607
56 | COCc1cc(=O)[nH]c(Nc2nc3ccccc3s2)n1 | 0.243 | 0.605
57 | CCOC(=O)c1cc(-c2ccc(/C=N/N3C(=O)C4C5C=CC(CC5)C4C3=O)o2)ccc1Cl (stereo unspecified) | 0.25 | 0.621
58 | Cc1cccc(NC(=O)C(C)C(=O)c2ccccc2)c1 (stereo unspecified) | 0.256 | 0.608
59 | N#CC(C#N)=CNc1cccc(N)n1 | 0.231 | 0.613
60 | Cn1c(=O)c(-c2nc3ccc(N4CCOCC4)cc3[nH]2)c(O)c2cc(Cl)ccc21 | 0.251 | 0.624
61 | O=c1[nH]cnc2ccc(NC(=S)NCc3ccc4c(c3)OCO4)cc12 | 0.255 | 0.613
62 | COc1ccc(C(=O)NCC(=O)N/N=C(\C)c2cccc(N)c2)cc1OC | 0.249 | 0.633
63 | N=c1c(S(=O)(=O)c2ccccc2)c(N)c(CO)c2sc3ccccc3n12 | 0.236 | 0.601
64 | CCOC(=O)C1=C(c2ccccc2)N=c2s/c(=C/c3cc(OC)c(OC)cc3Br)c(=O)n2C1c1c(OC)ccc2ccccc12 (stereo unspecified) | 0.255 | 0.661
65 | COc1ccc(-c2ccc(C=C(C#N)C#N)s2)cc1 | 0.249 | 0.65
66 | COc1ccc(/C=C/c2nc3sc4c(c3c(=O)o2)CCCC4)cc1OC | 0.244 | 0.592
67 | Cn1c2ccc(Br)cc2c2nnc(SCc3ccc4nonc4c3)nc21 | 0.25 | 0.62
68 | COc1cc(C)nc(NC(=O)NS(=O)(=O)c2c(C)cc(Cl)nc2Cl)n1 | 0.243 | 0.649
69 | COc1ccc(/C=N/NC(=O)c2ccc(C)o2)cc1Br | 0.251 | 0.59
70 | CCOC(=O)C1=C(C)N=c2s/c(=C/c3cc(Br)ccc3OC)c(=O)n2C1c1ccccc1 (stereo unspecified) | 0.249 | 0.61
71 | Cc1onc(-c2ccccc2Cl)c1C(=O)Nc1ccc(S(=O)(=O)Nc2nccs2)cc1 | 0.246 | 0.614
72 | CCOC(=O)C1=C(C)NC(=O)C(C(N)=O)C12CCCCC2 (stereo unspecified) | 0.237 | 0.601
73 | CCOc1ccc(-n2nc3ccc(NC(=O)COc4ccccc4C)cc3n2)cc1 | 0.235 | 0.616
74 | O=C(Nc1ccc(C(F)(F)F)cc1)Nc1ccccc1C(=O)O | 0.277 | 0.634
75 | CCOC(=O)C(=CNNS(=O)(=O)c1cc(C(F)(F)F)cc(C(F)(F)F)c1)C(=O)OCC | 0.246 | 0.602

Row | Compound | plate-normalized OD600 growth (temperature: 15°C, 48 h) | plate-normalized OD600 growth (temperature: 37°C, 24 h)
76 | COC(=O)Cn1sc2c3c(ccc2c1=O)C(=O)c1ccccc1C3=O | 0.247 | 0.652
77 | CCOc1ccc(N2C(=O)/C(=C/c3ccc(Br)cc3)NC2=S)cc1 | 0.244 | 0.615
78 | Cc1cc(C)c(C)c(C(=O)CCCC(=O)O)c1C | 0.245 | 0.624
79 | CCCN1C(=O)C(O)(C/C(C)=N\O)c2ccccc21 (stereo unspecified) | 0.263 | 0.615
80 | C=CCn1c(CSc2ccccc2[N+](=O)[O-])n[nH]c1=S | 0.26 | 0.606
81 | COC(=O)C1CC(=O)N(c2ccc(Br)cc2)C1 (stereo unspecified) | 0.244 | 0.616
82 | CC12CCC(C1)C(C)(C)C2NC(=O)c1cccs1 (stereo unspecified) | 0.26 | 0.639
83 | C=CCn1c(C(O)c2ccccc2)n[nH]c1=S (stereo unspecified) | 0.247 | 0.613
84 | CC(CCc1ccccc1)Nc1cc(N2CCN(S(C)(=O)=O)CC2)ccc1[N+](=O)[O-] (stereo unspecified) | 0.263 | 0.619
85 | Nc1nonc1N=NN(Cc1ccc(Cl)cc1)c1nonc1N | 0.25 | 0.616
86 | CCOc1ccc(N2C(=O)CC(N3CCN(C4CC(=O)N(c5ccc(OCC)cc5)C4=O)CC3)C2=O)cc1 (stereo unspecified) | 0.256 | 0.62
87 | Cc1cc(NC(=O)c2cc3n(n2)C(C(F)(F)F)CC(c2ccc(Br)cc2)N3)no1 (stereo unspecified) | 0.247 | 0.618
88 | CC(C)(C)N(NC(=O)OCc1ccccc1)C(=O)c1ccccc1 | 0.246 | 0.666
89 | O=C(O)c1cccc(-c2ccc(/C=N/NC(=O)c3ccncc3)o2)c1 | 0.247 | 0.64
90 | NC(=O)C1=C(O)C(=O)N(C2CCCCC2)C1 | 0.258 | 0.636
91 | C=CCSC1=C(C#N)C(c2ccccc2)CC(=O)N1 (stereo unspecified) | 0.244 | 0.621
92 | O=c1c2ccccc2nc(-c2ccccc2)n1Nc1cccc(Cl)c1 | 0.233 | 0.625
93 | O=C(CC1(O)C(=O)Cc2ccc(Br)cc21)c1ccc(F)cc1 (stereo unspecified) | 0.247 | 0.617
94 | Nc1sc(=S)n(-c2ccccc2)c1-c1nc2ccccc2s1 | 0.234 | 0.608
95 | O=C(Nc1cccnc1)Nc1csc(-c2ccc(C(F)(F)F)cc2)n1 | 0.22 | 0.615
96 | COc1ccc(C2C(C#N)=C(N)N(c3cccc(C)c3)C3=C2C(=O)CC(C)(C)C3)cc1OC (stereo unspecified) | 0.263 | 0.652
97 | O=C1CC(c2cccc([N+](=O)[O-])c2)CC2=C1C(c1ccc(Cl)cc1)N(C(=O)C(F)(F)F)c1ccccc1N2 (stereo unspecified) | 0.262 | 0.595
98 | Cc1ccc2[nH]c(=O)c(C=Nc3c(C)n(-c4ccccc4)n(-c4ccccc4)c3=O)c(O)c2c1 | 0.255 | 0.619
